These are yes or no findings as the source states them, for the method shown. Sequences can lack the tags named with a protein.
Columns and labels:
[1] = target: T1, SMC3, yeast two-hybrid fusion (Arabidopsis thaliana) (UniProt Q56YN8); assay: two-hybrid; Matchmaker Gold system (Clontech), pGADT7-GW and pGBKT7-GW fusions co-transformed into yeast AH109; growth on SD/-Leu -Trp -His
T1 sequence: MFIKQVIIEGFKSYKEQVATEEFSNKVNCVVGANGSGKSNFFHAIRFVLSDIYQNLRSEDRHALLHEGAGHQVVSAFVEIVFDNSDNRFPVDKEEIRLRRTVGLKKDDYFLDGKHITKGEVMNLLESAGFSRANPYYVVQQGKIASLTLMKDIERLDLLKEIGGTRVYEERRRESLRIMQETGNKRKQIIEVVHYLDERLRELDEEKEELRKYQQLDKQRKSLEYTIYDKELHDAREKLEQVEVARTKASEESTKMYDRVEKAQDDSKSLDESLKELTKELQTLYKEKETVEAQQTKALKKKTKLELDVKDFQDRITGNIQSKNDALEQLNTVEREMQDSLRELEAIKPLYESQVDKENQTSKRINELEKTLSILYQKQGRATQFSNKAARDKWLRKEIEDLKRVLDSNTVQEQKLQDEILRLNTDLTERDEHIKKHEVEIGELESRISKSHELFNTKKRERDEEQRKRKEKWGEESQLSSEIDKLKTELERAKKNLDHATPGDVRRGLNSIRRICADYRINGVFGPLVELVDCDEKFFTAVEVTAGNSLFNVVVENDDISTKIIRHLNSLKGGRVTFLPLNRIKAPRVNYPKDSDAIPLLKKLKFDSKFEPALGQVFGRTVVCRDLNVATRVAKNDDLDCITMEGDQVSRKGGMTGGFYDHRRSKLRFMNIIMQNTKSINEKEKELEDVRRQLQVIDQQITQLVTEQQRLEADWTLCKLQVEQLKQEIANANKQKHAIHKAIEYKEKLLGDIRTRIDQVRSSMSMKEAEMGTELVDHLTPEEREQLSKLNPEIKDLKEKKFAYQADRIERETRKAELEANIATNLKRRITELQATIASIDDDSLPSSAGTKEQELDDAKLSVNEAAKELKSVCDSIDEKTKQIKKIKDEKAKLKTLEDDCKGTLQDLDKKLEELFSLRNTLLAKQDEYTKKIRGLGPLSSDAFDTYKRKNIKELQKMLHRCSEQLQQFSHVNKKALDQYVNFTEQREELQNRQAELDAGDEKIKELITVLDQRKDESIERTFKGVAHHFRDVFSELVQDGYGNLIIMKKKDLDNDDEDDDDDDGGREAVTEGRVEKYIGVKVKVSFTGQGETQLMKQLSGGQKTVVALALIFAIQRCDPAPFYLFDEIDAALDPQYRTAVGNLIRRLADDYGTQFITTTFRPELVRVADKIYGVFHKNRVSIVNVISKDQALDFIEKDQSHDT

[2] = target: T2, WINGS APART-LIKE 1 (WAPL1), yeast two-hybrid fusion (Arabidopsis thaliana) (UniProt F4I7C7); assay: as above
T2 sequence: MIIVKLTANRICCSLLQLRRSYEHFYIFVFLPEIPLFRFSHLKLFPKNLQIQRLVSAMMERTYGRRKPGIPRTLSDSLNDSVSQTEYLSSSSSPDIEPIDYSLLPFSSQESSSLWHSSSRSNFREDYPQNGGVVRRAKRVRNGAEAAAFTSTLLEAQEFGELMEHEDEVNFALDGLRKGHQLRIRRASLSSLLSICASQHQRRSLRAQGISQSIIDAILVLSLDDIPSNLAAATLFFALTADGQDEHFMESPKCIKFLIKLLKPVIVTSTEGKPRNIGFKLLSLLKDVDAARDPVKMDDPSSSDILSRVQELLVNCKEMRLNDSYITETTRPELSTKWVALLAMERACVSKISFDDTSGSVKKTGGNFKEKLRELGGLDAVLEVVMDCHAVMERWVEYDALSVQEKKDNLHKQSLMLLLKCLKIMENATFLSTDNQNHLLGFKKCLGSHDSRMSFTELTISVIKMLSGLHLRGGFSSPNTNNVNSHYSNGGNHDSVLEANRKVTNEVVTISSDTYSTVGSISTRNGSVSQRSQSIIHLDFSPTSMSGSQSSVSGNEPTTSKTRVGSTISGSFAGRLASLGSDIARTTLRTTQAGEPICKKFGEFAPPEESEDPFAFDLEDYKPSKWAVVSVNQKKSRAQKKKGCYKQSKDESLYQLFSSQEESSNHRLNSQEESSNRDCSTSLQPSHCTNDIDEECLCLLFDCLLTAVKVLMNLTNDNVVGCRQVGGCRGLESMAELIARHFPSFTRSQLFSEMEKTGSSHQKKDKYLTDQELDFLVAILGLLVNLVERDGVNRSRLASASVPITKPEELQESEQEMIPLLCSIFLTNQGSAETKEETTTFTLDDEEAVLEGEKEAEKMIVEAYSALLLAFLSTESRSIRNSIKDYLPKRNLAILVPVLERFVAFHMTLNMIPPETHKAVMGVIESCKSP

binding [1]: no binding | binding [2]: no binding
B1: SWITCH 1/DYAD (SWI1), yeast two-hybrid fusion (protein, UniProt Q9FGN8 1-639)
chain: MSSTMFVKRNPIRETTAGKISSPSSPTLNVAVAHIRAGSYYEIDASILPQRSPENLKSIRVVMVSKITASDVSLRYPSMFSLRSHFDYSRMNRNKPMKKRSGGGLLPVFDESHVMASELAGDLLYRRIAPHELSMNRNSWGFWVSSSSRRNKFPRREVVSQPAYNTRLCRAASPEGKCSSELKSGGMIKWGRRLRVQYQSRHIDTRKNKEGEESSRVKDEVYKEEEMEKEEDDDDGNEIGGTKQEAKEITNGNRKRKLIESSTERLAQKAKVYDQKKETQIVVYKRKSERKFIDRWSVERYKLAERNMLKVMKEKNAVFGNSILRPELRSEARKLIGDTGLLDHLLKHMAGKVAPGGQDRFMRKHNADGAMEYWLESSDLIHIRKEAGVKDPYWTPPPGWKLGDNPSQDPVCAGEIRDIREELASLKRELKKLASKKEEEELVIMTTPNSCVTSQNDNLMTPAKEIYADLLKKKYKIEDQLVIIGETLRKMEEDMGWLKKTVDENYPKKPDSTETPLLLEDSPPIQTLEGEVKVVNKGNQITESPQNREKGRKHDQQERSPLSLISNTGFRICRPVGMFAWPQLPALAAATDTNASSPSHRQAYPSPFPVKPLAAKRPLGLTFPFTIIPEEAPKNLFNV
